# Source: patent US7759346B2, “[[2-(amino-3,4-dioxo-1-cyclobuten-1-yl)amino]alkyl]-acid derivatives for the treatment of pain” (priority 2001, dated 2010)
# Read-outs that look alike come from different tables or passages of the source.
# Key:
# Spraque-Dawley rats [1] = test: Warm-water tail withdrawal combination studies with morphine; assay type: in vivo, rat; conditions: morphine 5.6 mg/kg IP; vehicle T10 48.9±0.1
# Description: (§1) The terminal 10 cm of the tail was placed into a thermos bottle containing water warmed to 38, 42, 46, 50, 54, or 58° C. The latency in seconds for the animal to remove the tail from the water was used as a measure of nociception.
# Combination compound studies. […] Compounds were administered IP at the same time 30 min before testing.
# (§2) Test Method 1 Data Analysis—The temperature that produced a half-maximal increase in the tail-withdrawal latency (i.e., T10) was calculated from each temperature-effect curve. The T10 was determined by interpolation from a line drawn between the point above and the point below 10 sec on the temperature-effect curve. For these studies, thermal hypersensitivity was defined as a leftward shift in the temperature-effect curve and a decrease in the T10 value. Reversal of thermal hypersensitivity was defined as a return to baseline of the temperature-effect curve and the T10 value and was calculated according to the following equation: […]
# Spraque-Dawley rats [2] = conditions: rat, in vivo
# Description: as §1
# Following the assessment of baseline thermal sensitivity, thermal hypersensitivity was produced by a 50 μL injection of 0.1 mg prostaglandin E2 (PGE2) into the terminal 1 cm of the tail. Temperature-effect curves were generated before (baseline) and after (15, 30, 60, 90 and 120 min) the PGE2 injection.
# Compounds were administered IP at the same time as PGE2, which was administered 30 min before testing.
# as §2
smiles,measurement,setting,value
"CN1CC[C@]23c4c5ccc(O)c4O[C@H]2[C@@H](O)C=C[C@H]3[C@H]1C5 [Morphine, morphine]",T10 (temperature producing half-maximal tail-withdrawal latency),Spraque-Dawley rats [1],51.2±0.7
same,T10 (temperature producing half-maximal tail-withdrawal latency),Spraque-Dawley rats [2],50.6±0.5
